# From PubChem BioAssay AID1347075 (National Center for Advancing Translational Sciences (NCATS), 2019)
# The campaign covered roughly 400,000 compounds. About 5,500 (1.4%) were called active. This list was built around the results that the source calls inconclusive (neither active nor inactive); the mix of calls is not that of the screen. Calls come from the whole dose curve; as a rule, active = well fitted cell-killing curve with a large enough effect; inconclusive = small, poorly fitted or top-dose-only effect, or effect the other way; inactive = flat fitted curve, though single readings scatter. Potencies beside an inconclusive call are fits to weak or partial responses and may not hold up.
# Assay: qHTS assay for MDR1-selective chemotherapeutics: Primary screen using the parental adenocarcinoma cell KB-3-1; note: nearly all actives have a fitted effect of over 60% in size
# Settings: KB-3-1 viability, CellTiter-Glo ATP luminescence, 72 h; series mostly up to 46.1 µM
# Method in brief: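 Using CellTiter-Glo luminescence, growth of non-resistant KB-3-1 adenocarcinoma cells is assessed 72 h after pin-tool compound addition at 37 °C. Normalized responses across the concentration series yield fitted curves.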
# Potency is the fitted concentration of half-maximal effect.
row,SMILES,Potency
1,Cc1ccc(C(=O)Nc2ccccc2)cc1S(=O)(=O)Nc1ccc(Br)cc1,"inconclusive: 29.1 µM [cytotoxic, single point]"
2,Cn1cc(Cl)c(C(=O)Nc2nc3ccccc3s2)n1,inactive
3,O=C1C=C(Nc2ccc(O)cc2)CC(c2ccco2)C1 (stereo not given),"inconclusive: 29.1 µM [cytotoxic, single point]"
4,O=C(CCNS(=O)(=O)c1ccccc1F)OCc1ccccc1Cl,"inconclusive: 18.4 µM [rising, single point]"
5,CC(=O)Nc1ccc(S(=O)(=O)N(C)CC(=O)NNC(=O)Cc2nc3ccccc3n2C)cc1,inactive
6,CCN(C(=O)c1ccc(Cl)c([N+](=O)[O-])c1)c1ccccc1,"inconclusive: 29.1 µM [rising, single point]"
7,COc1nc(Nc2ccc(OC)c(Cl)c2)nc(OC)n1,"inconclusive: 20.6 µM [cytotoxic, single point]"
8,CCOC(=O)c1cnc2c(Cl)cc(Cl)cc2c1Nc1cc(C(=O)O)ccc1C,"inconclusive: 2.91 µM [cytotoxic, single point]"
9,Cc1ccccc1NS(=O)(=O)c1ccc(C(=O)NNC(=O)c2ccccc2O)cc1,"inconclusive: 16.4 µM [cytotoxic, partial curve]"
10,O=C(Nc1nnc(C2CCCCC2)s1)c1ccco1,inactive
11,CCCC1=Nc2cc(C(=O)NCC(C)c3ccccc3)ccc2Sc2ccccc21 (stereo not given),"inconclusive: 29.1 µM [cytotoxic, single point]"
12,CCOCCCNS(=O)(=O)c1ccc(NC(=O)N2c3ccccc3Sc3ccccc32)cc1,"inconclusive: 29.1 µM [cytotoxic, single point]"
13,Cc1nc(SCC(=O)Nc2ccc(S(=O)(=O)N3CCOCC3)cc2)c2c(C)c(C)sc2n1,active: 5.8 µM
14,O=C1CCC(C2CCc3cc(O)ccc3C2)C1 (stereo not given),inactive
15,Cn1cc([N+](=O)[O-])c(C(=O)Nc2ccc(-c3nc4ccccc4[nH]3)cc2)n1,"inconclusive: 5.8 µM [cytotoxic, full curve]"
16,COc1cc(CNCC2CCCO2)ccc1OCC(N)=O (stereo not given),"inconclusive: 4.11 µM [rising, full curve, poor fit]"
17,O=C(CCCSc1ccccc1)Nc1nc(-c2ccccn2)cs1,"inconclusive: 29.1 µM [cytotoxic, single point]"
18,COc1cc(-c2nccc3cc4c(cc23)OCO4)cc(OC)c1OC,active: 4.11 µM
19,CCOC(=O)C(C(=O)OCC)c1cc(Br)c2noc3c2c1C(=O)c1ccccc1-3,active: 5.17 µM
20,COc1ccc(/C=C2/SC(=S)N(CCCC(=O)Nc3ccc(O)cc3)C2=O)cc1,"inconclusive: 20.6 µM [cytotoxic, single point]"

# Ordered by SMILES length (ascending): part of the list above
row,SMILES,Potency
2,Cn1cc(Cl)c(C(=O)Nc2nc3ccccc3s2)n1,inactive
17,O=C(CCCSc1ccccc1)Nc1nc(-c2ccccn2)cs1,"inconclusive: 29.1 µM [cytotoxic, single point]"
1,Cc1ccc(C(=O)Nc2ccccc2)cc1S(=O)(=O)Nc1ccc(Br)cc1,"inconclusive: 29.1 µM [cytotoxic, single point]"
